Measurements published in PubChem BioAssay AID248 (DTP/NCI, 2004).
The list is a part of this screen's results and no random one: it is rich in T/C values a quarter to a half above the control, in often repeated tests (any T/C) and in doses without a T/C. Other doses and runs of a compound stand elsewhere. T/C is the treated group as % of the vehicle group. Some doses have a count of surviving animals in place of a T/C: the source holds a T/C of zero for them, seemingly a mark for toxic or unscored doses. Some doses without a T/C left all or most animals alive at the check, yet need not have been tolerated: the source hardly ever lists a survival T/C far under the control, and the zero likely stands for such cases as well. Counts of survivors are from the toxicity check (mostly the fifth day) where no day follows; animals may have died later. Schedule codes are those of the source, taken here to give the interval after Q, in days (D) or hours (H), and the number of doses after X. Some entries were tested several times; the values are given in rising order. Some schedule codes hold Z or #, which are not explained here. Where survival is the endpoint, the PubChem record calls one and a half times the control and up active, and a quarter to a half above the control has no call in these data; cut-offs in other NCI protocols can differ. Some T/C values are followed by the survivors on the day toxicity was checked, most often the fifth; where none is given, no animal had died by that day. Brackets with × give the number of equal values in this list.

System: L1210 leukemia ip in BDF1 mice, survival T/C
Assay: NCI In Vivo Anticancer Drug Screen. Data for tumor model L1210 Leukemia (intraperitoneal) in B6D2F1 (BDF1) mice
Settings: higher T/C = longer survival
[1] = T/C endpoint: mean survival time, dose: 400.0 mg/kg/injection, schedule: Q04DX003 (ip), vehicle: saline
[2] = T/C endpoint: mean survival time, dose: 50.0 mg/kg/injection, schedule: Q01DX009 (ip), vehicle: saline with Tween-80
[3] = T/C endpoint: mean survival time, dose: 100.0 mg/kg/injection, schedule: Q01DX009 (ip), vehicle: saline with Tween-80
[4] = T/C endpoint: mean survival time, dose: 200.0 mg/kg/injection, schedule: Q01DX009 (ip), vehicle: saline with Tween-80
[5] = T/C endpoint: mean survival time, dose: 400.0 mg/kg/injection, schedule: Q01DX009 (ip), vehicle: saline with Tween-80
[6] = T/C endpoint: mean survival time, dose: 200.0 mg/kg/injection, schedule: Q04DX003 (ip), vehicle: saline with Tween-80
[7] = T/C endpoint: mean survival time, dose: 400.0 mg/kg/injection, schedule: Q04DX002 (ip), vehicle: saline with Tween-80
[8] = T/C endpoint: mean survival time, dose: 300.0 mg/kg/injection, schedule: Q01DX001 (ip), vehicle: saline
[9] = T/C endpoint: mean survival time, dose: 200.0 mg/kg/injection, schedule: Q04DX002 (ip), vehicle: saline with Tween-80
[10] = T/C endpoint: mean survival time, dose: 50.0 mg/kg/injection, schedule: Q01DX010 (sc), vehicle: steroid suspending solution

In the case of `O=C(Nc1c(Oc2ccc(Cl)cc2)ccc(Cl)c1S(=O)(=O)O)Nc1c(Oc2ccc(Cl)cc2)ccc(Cl)c1S(=O)(=O)O`, the survivor count (T/C endpoint: mean survival time, dose: 200.0 mg/kg/injection, schedule: Q01DX001 (ip), vehicle: acetone) is reported as 6 of 6 and the survivor count [1] is reported as 0 of 6.
`C[NH-].C[NH-].[I][Pt+2][I]` was tested, and the T/C (T/C endpoint: mean survival time, dose: 25.0 mg/kg/injection, schedule: Q04DX003 (ip), vehicle: other) was 132 % of control, the T/C (T/C endpoint: mean survival time, dose: 100.0 mg/kg/injection, schedule: Q01DX001 (ip), vehicle: other) was 127 % of control and the survivor count (T/C endpoint: mean survival time, dose: 100.0 mg/kg/injection, schedule: Q04DX003 (ip), vehicle: other) was 4 of 6. For the same compound, the survivor count (T/C endpoint: mean survival time, dose: 150.0 mg/kg/injection, schedule: Q01DX001 (ip), vehicle: other) was 1 of 6, the survivor count (T/C endpoint: mean survival time, dose: 200.0 mg/kg/injection, schedule: Q01DX001 (ip), vehicle: other) was 0 of 6 and the survivor count (T/C endpoint: mean survival time, dose: 400.0 mg/kg/injection, schedule: Q01DX001 (ip), vehicle: other) was 0 of 6.
With `CN(C)CCC(C=NCC(CCN(C)C)(CCN(C)C)c1cccc2ccccc12)(CCN(C)C)c1cccc2ccccc12` the survivor count [2] was 5 of 6, the survivor count (T/C endpoint: mean survival time, dose: 50.0 mg/kg/injection, schedule: Q04DX003 (ip), vehicle: saline with Tween-80) was 0 of 6 and the survivor count [3] was 0 of 6. For the same compound, the survivor count [4] was 0 of 6 and the survivor count [5] was 0 of 6.
`CN(C)c1ccc(/C=N/NC(=O)CCCCCCCCC(=O)N/N=C/c2ccc(N(C)C)cc2)cc1` was tested, and the T/C [2] was 94, 97 (2×), 105 % of control, the T/C [3] was 94 and 103 % of control and the survivor count [3] was 4 of 6 and 3 of 3. The survivor count [4] was 0 of 6 and 1 of 3, the survivor count [6] was 6 of 6 and the survivor count (T/C endpoint: mean survival time, dose: 400.0 mg/kg/injection, schedule: Q01DX001 (ip), vehicle: saline with Tween-80) was 0 of 3. For the same compound, the survivor count [7] was 3 of 6.
`O=C1C(N2CC2)=C(N2CCCC(O)C2)C(=O)C(N2CC2)=C1N1CCCC(O)C1` (stereo not drawn) was tested, and the T/C (T/C endpoint: mean survival time, dose: 0.75 mg/kg/injection, schedule: Q01DX009 (ip), vehicle: saline) was 128 % of control, the T/C (T/C endpoint: mean survival time, dose: 1.0 mg/kg/injection, schedule: Q04DX003 (ip), vehicle: saline) was 133 % of control and the T/C (T/C endpoint: mean survival time, dose: 1.5 mg/kg/injection, schedule: Q01DX009 (ip), vehicle: saline) was 129 % of control [5 of 6 alive]. The T/C (T/C endpoint: mean survival time, dose: 2.6 mg/kg/injection, schedule: Q04DX003 (ip), vehicle: saline) was 132 % of control, the T/C (T/C endpoint: mean survival time, dose: 3.0 mg/kg/injection, schedule: Q01DX009 (ip), vehicle: saline) was 144 % of control and the T/C (T/C endpoint: mean survival time, dose: 8.0 mg/kg/injection, schedule: Q04DX003 (ip), vehicle: saline) was 128 % of control.
For `COc1c(Cl)c(Cl)c(Cl)c(Cl)c1Cl`, the survivor count (T/C endpoint: mean survival time, dose: 400.0 mg/kg/injection, schedule: Q01DX009 (ip), vehicle: saline) was 6 of 6.
In the case of `O=C1OCC/C1=C/OCCO/C=C1\CCOC1=O`, the survivor count (T/C endpoint: mean survival time, dose: 400.0 mg/kg/injection, schedule: Q04DX002 (ip), vehicle: Klucel (hydroxypropylcellulose) (HPC)) is reported as 3 of 3.
In the case of `OCC1CCCN2CCCCC12` (stereo not drawn), the survivor count [1] is reported as 0 of 6.
With `CC/C(=C\c1ccc2ccccc2c1)[N+](=O)[O-]` the survivor count [8] was 3 of 6.
In the case of `O=C(N=c1scc(-c2ccc(Br)cc2)n1-c1cccc2ccccc12)c1ccccc1F`, the survivor count [3] is reported as 6 of 6, the survivor count [4] is reported as 6 of 6 and the survivor count [5] is reported as 6 of 6.
For `CNC(COC(=O)c1ccc(N)cc1)C1CCCCC1` (stereo not drawn), the survivor count (T/C endpoint: mean survival time, dose: 150.0 mg/kg/injection, schedule: Q01DX001 (ip), vehicle: saline) was 2 of 6 and the survivor count [8] was 0 of 6.
`C/C(=N/N(C)C)c1cccs1` was tested, and the T/C (T/C endpoint: mean survival time, dose: 25.0 mg/kg/injection, schedule: Q04DX003 (sc), vehicle: olive oil, sesame oil, peanut oil) was 135 % of control, the T/C (T/C endpoint: mean survival time, dose: 50.0 mg/kg/injection, schedule: Q04DX003 (sc), vehicle: olive oil, sesame oil, peanut oil) was 142 % of control and the survivor count (T/C endpoint: mean survival time, dose: 75.0 mg/kg/injection, schedule: Q04DX003 (sc), vehicle: olive oil, sesame oil, peanut oil) was 6 of 6. For the same compound, the survivor count (T/C endpoint: mean survival time, dose: 100.0 mg/kg/injection, schedule: Q04DX003 (sc), vehicle: olive oil, sesame oil, peanut oil) was 6 of 6, the survivor count (T/C endpoint: mean survival time, dose: 200.0 mg/kg/injection, schedule: Q04DX003 (sc), vehicle: olive oil, sesame oil, peanut oil) was 0 of 6 and the survivor count (T/C endpoint: mean survival time, dose: 400.0 mg/kg/injection, schedule: Q04DX003 (sc), vehicle: olive oil, sesame oil, peanut oil) was 0 of 6.
With `CNC(=O)NNC(=O)CNC(=O)Nc1cccc([N+](=O)[O-])c1` the survivor count [3] was 1 of 6.
For `Cc1ccccc1C(O)c1cnc(C)n1Cc1ccccc1` (stereo not drawn), the T/C (T/C endpoint: mean survival time, dose: 100.0 mg/kg/injection, schedule: Q04DX002 (ip), vehicle: saline with Tween-80) was 90 (2×), 95, 105 % of control, the T/C [9] was 93, 98, 100 % of control and the survivor count [9] was 3 of 3. For the same compound, the survivor count [5] was 3 of 3, the T/C [7] was 88, 93, 100 % of control and the survivor count [7] was 3 of 3.
`c1ccc2c(c1)ccc1[nH]c3ccc4ccccc4c3c12` was tested, and the survivor count (T/C endpoint: mean survival time, dose: 50.0 mg/kg/injection, schedule: Q01DX009 (ip), vehicle: Klucel (hydroxypropylcellulose) (HPC)) was 4 of 6, the survivor count (T/C endpoint: mean survival time, dose: 100.0 mg/kg/injection, schedule: Q04DX003 (ip), vehicle: Klucel (hydroxypropylcellulose) (HPC)) was 1 of 6 and the survivor count (T/C endpoint: mean survival time, dose: 200.0 mg/kg/injection, schedule: Q04DX003 (ip), vehicle: Klucel (hydroxypropylcellulose) (HPC)) was 3 of 6. For the same compound, the survivor count (T/C endpoint: mean survival time, dose: 400.0 mg/kg/injection, schedule: Q04DX003 (ip), vehicle: Klucel (hydroxypropylcellulose) (HPC)) was 3 of 6.
In the case of `C=CCOC(=O)COCC(=O)OCC=C`, the survivor count [1] is reported as 0 of 6.
`CCN(CC)CCNC1CCCCC1` was tested, and the survivor count [6] was 1 of 6 and the survivor count (T/C endpoint: mean survival time, dose: 400.0 mg/kg/injection, schedule: Q04DX003 (ip), vehicle: saline with Tween-80) was 0 of 6.
For `C[C@]12C=CC(=O)C=C1CC[C@@H]1[C@@H]2C(=O)C[C@@]2(C)[C@H]1CC[C@]2(O)C(=O)CO`, the T/C (T/C endpoint: mean survival time, dose: 12.5 mg/kg/injection, schedule: Q01DX010 (sc), vehicle: steroid suspending solution) was 94, 99, 100, 101 % of control, the T/C (T/C endpoint: mean survival time, dose: 25.0 mg/kg/injection, schedule: Q01DX010 (sc), vehicle: steroid suspending solution) was 92, 94, 100, 104 % of control and the T/C [10] was 99, 100 [5 of 6 alive], 104 % of control. For the same compound, the survivor count [10] was 5 of 6, the T/C (T/C endpoint: mean survival time, dose: 100.0 mg/kg/injection, schedule: Q01DX010 (sc), vehicle: steroid suspending solution) was 87, 90 [5 of 6 alive], 96, 105 % of control and the survivor count (T/C endpoint: mean survival time, dose: 100.0 mg/kg/injection, schedule: Q01DX Z (sc), vehicle: steroid suspending solution) was 4 of 6. For the same compound, the T/C (T/C endpoint: mean survival time, dose: 200.0 mg/kg/injection, schedule: Q01DX010 (sc), vehicle: steroid suspending solution) was 92, 92 [5 of 6 alive], 94, 98 % of control, the survivor count (T/C endpoint: mean survival time, dose: 200.0 mg/kg/injection, schedule: Q01DX Z (sc), vehicle: steroid suspending solution) was 2 of 6 and the survivor count (T/C endpoint: mean survival time, dose: 400.0 mg/kg/injection, schedule: Q01DX Z (sc), vehicle: steroid suspending solution) was 4 of 6 and 6 of 6. The T/C (T/C endpoint: median survival time, dose: 25.0 mg/kg/injection, schedule: Q01DX009 (ip), vehicle: saline) was 100 (3×) and 105 % of control [5 of 6 alive], the T/C (T/C endpoint: median survival time, dose: 50.0 mg/kg/injection, schedule: Q01DX009 (ip), vehicle: saline) was 100 (2×), 106, 111 % of control and the T/C (T/C endpoint: median survival time, dose: 100.0 mg/kg/injection, schedule: Q01DX009 (ip), vehicle: saline) was 100 [5 of 6 alive], 105 (2×), 106 % of control. The T/C (T/C endpoint: median survival time, dose: 200.0 mg/kg/injection, schedule: Q01DX009 (ip), vehicle: saline) was 87 [5 of 6 alive], 110, 111, 112 % of control, the survivor count (T/C endpoint: median survival time, dose: 300.0 mg/kg/injection, schedule: Q01DX009 (ip), vehicle: water) was 8 of 8 and the survivor count (T/C endpoint: median survival time, dose: 500.0 mg/kg/injection, schedule: Q01DX009 (ip), vehicle: water) was 7 of 8. For the same compound, the survivor count (T/C endpoint: median survival time, dose: 800.0 mg/kg/injection, schedule: Q01DX009 (ip), vehicle: water) was 3 of 8, the survivor count (T/C endpoint: median survival time, dose: 833.0 mg/kg/injection, schedule: Q01DX009 (ip), vehicle: water) was 6 of 8 and the survivor count (T/C endpoint: median survival time, dose: 1388.0 mg/kg/injection, schedule: Q01DX009 (ip), vehicle: water) was 7 of 8.
